## Library screening results

Sequences of proteins named here, by UniProt entry; tags and fusion partners are left off.
UniProt E9BF75, entry or part of it: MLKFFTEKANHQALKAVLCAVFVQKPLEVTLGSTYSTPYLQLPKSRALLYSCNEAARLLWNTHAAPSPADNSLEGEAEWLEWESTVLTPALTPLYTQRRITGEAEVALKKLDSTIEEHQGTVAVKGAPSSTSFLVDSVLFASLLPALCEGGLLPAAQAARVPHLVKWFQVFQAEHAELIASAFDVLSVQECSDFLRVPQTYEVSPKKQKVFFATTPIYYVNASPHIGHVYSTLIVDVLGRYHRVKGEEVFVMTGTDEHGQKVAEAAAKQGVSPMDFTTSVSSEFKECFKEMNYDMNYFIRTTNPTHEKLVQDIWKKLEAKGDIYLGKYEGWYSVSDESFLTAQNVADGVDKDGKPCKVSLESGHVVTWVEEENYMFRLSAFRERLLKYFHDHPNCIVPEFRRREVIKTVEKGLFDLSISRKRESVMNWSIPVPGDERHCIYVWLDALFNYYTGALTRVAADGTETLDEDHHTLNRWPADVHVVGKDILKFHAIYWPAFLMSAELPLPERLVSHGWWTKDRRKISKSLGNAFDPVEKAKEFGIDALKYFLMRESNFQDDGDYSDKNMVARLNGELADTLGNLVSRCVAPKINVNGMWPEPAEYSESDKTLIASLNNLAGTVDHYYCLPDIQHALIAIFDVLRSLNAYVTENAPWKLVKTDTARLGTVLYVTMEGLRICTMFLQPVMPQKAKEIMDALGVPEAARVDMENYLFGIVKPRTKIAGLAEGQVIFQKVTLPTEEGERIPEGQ

The values are deposited in ChEMBL (CHEMBL3988442, “University of Dundee, Small-Polar-MMV Screening Library” (2021)).

LdMetRS: 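Primary screen of methionyl-tRNA synthetase; the read-out is not stated. Target: Methionyl-tRNA synthetase (putative), Leishmania donovani (UniProt E9BF75). The test concentration is not given. The values are filed as inhibition. About 68,000 compounds were tested under these conditions; 0.035% (about 24) showed 50% or more at least once.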
Mtb heat-shock: 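Assay on Mycobacterium tuberculosis, filed only as a heat shock assay from Cornell; the read-out is not stated. The concentration is filed as 10 mM, unlikely as a test dose, so the dose is not known. The record gives no direction; compounds that gave an IC50 in retests scored well above the rest, so higher reads as stronger inhibition. About 69,000 compounds were tested under these conditions; 1.4% (about 930) showed 50% or more at least once.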

Results are percentages, as filed.
The controls that fix the scale are not given in the record; negative values are as filed.
Compounds were drawn at random from those tested, without regard to their results.
A dash means the value is not listed here; it may have been measured.

compound | LdMetRS | Mtb heat-shock
Cc1cccc(C(=O)NCCNS(=O)(=O)c2cccs2)c1C | 7.88% | -23.66%
CCOC[C@@H]1CC[C@H]2[C@H](CCN2C(=O)c2cnccn2)O1 | 22.34% | -
Cc1ncsc1CN1CC[C@H]2OCC[C@@]2(C(=O)NC2CC2)C1 | 8.511% | -
COc1ccc(C[C@H]2CN(Cc3ccoc3)CC[C@@H]2OC)cc1 | 13.74% | -
Cn1cc(C[C@H]2[C@H](N3CCOCC3)CCN2c2ncc(F)cn2)cn1 | 9.424% | -
Cc1cc(C)c2nc(CN3CC[C@@H](O)C3)cc(O)c2c1 | 23.55% | 18.81%
COc1ccc(F)cc1-c1ccccc1CC1(C(=O)O)CCOCC1 | -2.532% | -6.389%
COCCNC(=O)CCN1C(=O)CC2(CCCC2)C1=O | 13.6% | -9.261%
CC(C(=O)N1CCCC1)N1CCN(c2ncc(Cl)cn2)CC1 (centres unmarked) | 5.307% | -28.92%
CN(CCC#N)C(=O)Cn1nnnc1C(C)(C)C | 14.24% | 9.717%
COCCNC(=O)Nc1cccc2c1CCN(S(C)(=O)=O)C2 | 10.61% | 12.73%
CC(C)n1nc2c(cc1=O)CN(CCCN1CCCC1=O)CC2 | 18.1% | 9.59%
COc1cc(C(F)(F)F)sc1C(=O)O | 20.12% | 11.86%
CSc1ccc(C(O)CNS(=O)(=O)C2CC2)cc1 (centres unmarked) | 7.914% | 5.764%
CSCCC(=O)N1CCC(c2nccn2Cc2cscn2)CC1 | 10.03% | -14.91%
CC1CN(S(=O)(=O)c2ccc(F)cc2F)c2cccnc2O1 (centres unmarked) | 19.84% | 4.819%
CCC[C@H]1CN(CCS(C)(=O)=O)C[C@@H]1NC(=O)Cn1cc(C)cn1 | 8.824% | 2.92%
Cc1n[nH]c(C2CN(C(=O)CCCn3cccn3)CCO2)n1 (centres unmarked) | -10.67% | 3.715%
Cn1cc(C(=O)N2CC[C@@H]3[C@@H]2CCN3Cc2ccccc2)cn1 | 14.84% | -
CN(C)C(=O)c1cccc(C2CCN(c3ncccn3)CC2)n1 | 7.874% | 21.04%
Cc1nnc([C@@H]2CC[C@@H]3[C@@H](CCN3C3CCOCC3)O2)o1 | 8.759% | -
CCC1CN(C(=O)c2csc3nc(-c4ccc(Cl)cc4)cn23)CCN1 (centres unmarked) | 15.49% | 59.48%
CC1CCN(CCNC(=O)C(C)n2cncn2)CC1 (centres unmarked) | 9.143% | 1.346%
Cc1nn(C)c(Cl)c1C1CCCN1C(=O)c1cnccn1 (centres unmarked) | 9.687% | 4.266%
O=C1CC(c2ccc(C(=O)O)cc2)c2ncn(-c3ccccc3F)c2N1 (centres unmarked) | -0.2597% | 20.07%
Cc1nc(C2CCCN2C(=O)CCCOc2ccccc2C)no1 (centres unmarked) | 9.358% | 0.9356%
O=C([C@H]1COC[C@H]2CN(CC3CCCC3)C[C@H]21)N1CCOCC1 | 13.41% | -
Cc1cnn(CC2CCCCN2C(=O)c2ccc3[nH]nnc3c2)c1 (centres unmarked) | 15.28% | 2.674%
Cc1nc(CCCNC(=O)[C@H]2CNC[C@@H](C(=O)N3CCCC3)C2)sc1C | 15.95% | -6.599%
N#Cc1cccc(OC2CCN(C(=O)c3cncc(O)c3)CC2)c1 | 5.236% | -26.91%
COc1cccc(CCCNC(=O)N2CCC(O)(C(F)(F)F)C2)c1 (centres unmarked) | 24.18% | 3.596%
COC(=O)c1ccc(CN[C@@H]2COC[C@H]2Cc2cc(C)no2)cc1 | 6.472% | -
CCc1cnc(C)nc1NC(CC)c1cnn(C)c1 (centres unmarked) | 1.882% | -10.43%
[H][C@@]12COC[C@]1(CNS(C)(=O)=O)CN(C(=O)C1CCCCC1)C2 | - | -2.03%
CSc1ncc(CNC(C)c2cnn(-c3ccccc3)c2C)cn1 (centres unmarked) | 6.03% | -17.96%
O=C(O)C(F)(F)F.[H][C@]12CCC(=O)N(c3cccnc3)[C@@]1([H])CCN2C(=O)c1ccc(C#N)cc1 | - | 0.7242%
Cc1cc(-c2nn(C)c(Cl)c2CN2Cc3ccccc3C(O)C2)no1 (centres unmarked) | 12.59% | 13.23%
O=C([C@H]1COC[C@H]2CN(C3CCCC3)C[C@H]21)N1CCCCO1 | 7.95% | -
CCOc1ncccc1CNS(=O)(=O)c1ccc2c(c1)CCO2 | 7.494% | -25.33%
Cc1ccc2c(c1)C(N1CCOCC1)CC21CCNCC1 (centres unmarked) | 15.69% | 3.661%
COc1cc(N2CC[C@H](O)[C@@H]2Cc2ccccc2)ncn1 | 0% | -20.53%
[H][C@]12CCC[C@@]1(COC)CN(C(=O)COC)C2 | - | 2.627%
Cc1ccc(N2N=C(C(=O)N(C)Cc3ccco3)NCC2=O)cc1 | 7.796% | -9.232%
Cc1cnc(N2CCN3C[C@H](OCc4ccccn4)C[C@H]3C2)nc1 | 19.93% | -
[H][C@@]12CN(Cc3cccc(F)c3)C[C@]1([H])N(CCCN1CCOCC1)C(=O)O2 | - | -15.74%
CC(C)(C)c1nc(CNc2cc3c(cc2Cl)NC(=O)CO3)no1 | 13.01% | -20.36%
CN1CCCc2c1nc1c(c2N)CCCC1.O=C(O)C(=O)O | - | -31.82%
c1ccc(CN2CCCC3(CCN(Cc4cccs4)C3)C2)nc1 (centres unmarked) | 18.91% | -
Cc1nc(CN2CCCN(C(=O)C(C)OCC3CC3)CC2)cs1 (centres unmarked) | 11.11% | 7.924%
CCOc1ccc(N2CCCN=C2NC(=O)c2ccccc2C)cc1 | 16.54% | 23.82%
O=C(NC1CC1)N1CCOCC2(CCN(Cc3cccs3)C2)C1.O=C(O)C(F)(F)F (centres unmarked) | - | -37.14%
Cc1nc(N(C)C)nc(C)c1NC(=O)c1ccco1 | 10.07% | 8.703%
O=C(CC1CC1)N1CCC2(CC1)CN(c1ccsc1)C(=O)CO2 | 8.458% | 1.363%
Cc1cc(C)c(C(=O)N2CCn3nc(C(=O)NCCN(C)C)cc3C2)[nH]1 | 2.128% | -25.21%
N#Cc1c(F)cccc1N1CCN(S(=O)(=O)c2cccs2)CC1 | -20.2% | 5.118%
[H][C@@]12CCCO[C@]1([H])[C@H](NC(=O)c1cscn1)CN2c1ncccn1 | - | -8.484%
O=C(Cn1cccn1)NCC1CCN(Cc2cc3ccccc3[nH]2)C1 (centres unmarked) | 6.609% | -26.67%
CCN(CC)S(=O)(=O)c1cccc(C(=O)N(C)Cc2ccsc2)c1 | 6.818% | -13.03%

For reference, 4 entries once more:

compound,LdMetRS,Mtb heat-shock
Cc1ccc(N2N=C(C(=O)N(C)Cc3ccco3)NCC2=O)cc1,7.796%,-9.232%
CSCCC(=O)N1CCC(c2nccn2Cc2cscn2)CC1,10.03%,-14.91%
COc1ccc(C[C@H]2CN(Cc3ccoc3)CC[C@@H]2OC)cc1,13.74%,-
Cn1cc(C(=O)N2CC[C@@H]3[C@@H]2CCN3Cc2ccccc2)cn1,14.84%,-